{
  "source": "the supplement of paper PMC8728848",
  "assay_in_all_cases": "glycan array binding signal (z-score within array); higher = stronger binding",
  "conditions_in_all_cases": "glycan notation: IUPAC condensed, linker removed",
  "key": {"Gal(a1-3)Gal(b1-3)GlcNAc": {"biological_target": "Gal(a1-3)Gal(b1-3)GlcNAc", "procedure,_shortened": "(§1)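 The binding signal is a Z-score computed within each array and averaged over linkers. Arrays of the same protein sequence at different concentrations or buffers were also averaged together. Data originate from 3228 arrays in the Consortium for Functional Glycomics database, kept only where the protein sequence was available.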"}, "[1]": {"biological_target": "Gal(a1-3)Gal(b1-3)GlcNAc(b1-2)Man", "procedure,_shortened": "as §1"}, "[2]": {"biological_target": "Gal(a1-3)Gal(b1-3)GlcNAc(b1-2)Man(a1-3)[Gal(a1-3)Gal(b1-3)GlcNAc(b1-2)Man(a1-6)]Man(b1-4)GlcNAc(b1-4)GlcNAc", "procedure,_shortened": "as §1"}, "[3]": {"biological_target": "Gal(a1-3)Gal(b1-3)GlcNAc(b1-3)GalNAc", "procedure,_shortened": "as §1"}, "[4]": {"biological_target": "Gal(a1-3)Gal(b1-3)GlcNAc(b1-6)GalNAc", "procedure,_shortened": "as §1"}, "[5]": {"biological_target": "Gal(a1-3)Gal(b1-3)[Fuc(a1-4)]GlcNAc(b1-2)Man(a1-3)[Gal(a1-3)Gal(b1-3)[Fuc(a1-4)]GlcNAc(b1-2)Man(a1-6)]Man(b1-4)GlcNAc(b1-4)GlcNAc", "procedure,_shortened": "as §1"}, "Gal(a1-3)Gal(b1-4)Glc": {"biological_target": "Gal(a1-3)Gal(b1-4)Glc", "procedure,_shortened": "as §1"}, "Gal(a1-3)Gal(b1-4)GlcNAc": {"biological_target": "Gal(a1-3)Gal(b1-4)GlcNAc", "procedure,_shortened": "as §1"}, "[6]": {"biological_target": "Gal(a1-3)Gal(b1-4)GlcNAc(b1-2)Man", "procedure,_shortened": "as §1"}, "[7]": {"biological_target": "Gal(a1-3)Gal(b1-4)GlcNAc(b1-2)Man(a1-3)[Gal(a1-3)Gal(b1-4)GlcNAc(b1-2)Man(a1-6)]Man(b1-4)GlcNAc(b1-4)GlcNAc", "procedure,_shortened": "as §1"}, "[8]": {"biological_target": "Gal(a1-3)Gal(b1-4)GlcNAc(b1-3)GalNAc", "procedure,_shortened": "as §1"}, "[9]": {"biological_target": "Gal(a1-3)Gal(b1-4)GlcNAc(b1-6)GalNAc", "procedure,_shortened": "as §1"}, "[10]": {"biological_target": "Gal(a1-3)Gal(b1-4)[Fuc(a1-3)]GlcNAc", "procedure,_shortened": "as §1"}, "[11]": {"biological_target": "Gal(a1-3)Gal(b1-4)[Fuc(a1-3)]GlcNAc(b1-2)Man(a1-3)[Gal(a1-3)Gal(b1-4)[Fuc(a1-3)]GlcNAc(b1-2)Man(a1-6)]Man(b1-4)GlcNAc(b1-4)GlcNAc", "procedure,_shortened": "as §1"}, "Gal(a1-3)GalNAc": {"biological_target": "Gal(a1-3)GalNAc", "procedure,_shortened": "as §1"}, "[12]": {"biological_target": "Gal(a1-3)[Gal(a1-4)]Gal(b1-4)GlcNAc", "procedure,_shortened": "as §1"}, "[13]": {"biological_target": "Gal(a1-4)Gal(b1-3)GlcNAc(b1-2)Man(a1-3)[Gal(a1-4)Gal(b1-3)GlcNAc(b1-2)Man(a1-6)]Man(b1-4)GlcNAc(b1-4)GlcNAc", "procedure,_shortened": "as §1"}, "Gal(a1-4)Gal(b1-4)Glc": {"biological_target": "Gal(a1-4)Gal(b1-4)Glc", "procedure,_shortened": "as §1"}, "Gal(a1-4)Gal(b1-4)GlcNAc": {"biological_target": "Gal(a1-4)Gal(b1-4)GlcNAc", "procedure,_shortened": "as §1"}, "[14]": {"biological_target": "Gal(a1-4)Gal(b1-4)GlcNAc(b1-2)Man(a1-3)[Gal(a1-4)Gal(b1-4)GlcNAc(b1-2)Man(a1-6)]Man(b1-4)GlcNAc(b1-4)GlcNAc", "procedure,_shortened": "as §1"}, "[15]": {"biological_target": "Gal(a1-4)Gal(b1-4)GlcNAc(b1-3)Gal(b1-4)Glc", "procedure,_shortened": "as §1"}, "Gal(a1-4)GlcNAc": {"biological_target": "Gal(a1-4)GlcNAc", "procedure,_shortened": "as §1"}, "Gal(a1-6)Glc": {"biological_target": "Gal(a1-6)Glc", "procedure,_shortened": "as §1"}, "Gal(b1-2)Gal": {"biological_target": "Gal(b1-2)Gal", "procedure,_shortened": "as §1"}, "Gal(b1-3)Gal": {"biological_target": "Gal(b1-3)Gal", "procedure,_shortened": "as §1"}, "Gal(b1-3)Gal(b1-4)GlcNAc": {"biological_target": "Gal(b1-3)Gal(b1-4)GlcNAc", "procedure,_shortened": "as §1"}, "Gal(b1-3)GalNAc": {"biological_target": "Gal(b1-3)GalNAc", "procedure,_shortened": "as §1"}, "[16]": {"biological_target": "Gal(b1-3)GalNAc(a1-3)[Fuc(a1-2)]Gal(b1-4)Glc", "procedure,_shortened": "as §1"}, "[17]": {"biological_target": "Gal(b1-3)GalNAc(a1-3)[Fuc(a1-2)]Gal(b1-4)GlcNAc", "procedure,_shortened": "as §1"}, "Gal(b1-3)GalNAc(b1-3)Gal": {"biological_target": "Gal(b1-3)GalNAc(b1-3)Gal", "procedure,_shortened": "as §1"}, "[18]": {"biological_target": "Gal(b1-3)GalNAc(b1-3)Gal(a1-4)Gal(b1-4)Glc", "procedure,_shortened": "as §1"}, "[19]": {"biological_target": "Gal(b1-3)GalNAc(b1-4)Gal(b1-4)Glc", "procedure,_shortened": "as §1"}, "[20]": {"biological_target": "Gal(b1-3)GalNAc(b1-4)[Neu5Ac(a2-3)]Gal(b1-4)Glc", "procedure,_shortened": "as §1"}, "Gal(b1-3)GlcNAc": {"biological_target": "Gal(b1-3)GlcNAc", "procedure,_shortened": "as §1"}, "[21]": {"biological_target": "Gal(b1-3)GlcNAc(a1-3)Gal(b1-4)GlcNAc", "procedure,_shortened": "as §1"}, "[22]": {"biological_target": "Gal(b1-3)GlcNAc(a1-6)Gal(b1-4)GlcNAc", "procedure,_shortened": "as §1"}, "Gal(b1-3)GlcNAc(b1-2)Man": {"biological_target": "Gal(b1-3)GlcNAc(b1-2)Man", "procedure,_shortened": "as §1"}, "[23]": {"biological_target": "Gal(b1-3)GlcNAc(b1-2)Man(a1-3)[Gal(b1-3)GlcNAc(b1-2)Man(a1-6)]Man(b1-4)GlcNAc(b1-4)GlcNAc", "procedure,_shortened": "as §1"}},
  "note": "Some of the results follow.",
  "data": [
    {"binder": "PX9961K-bvu-480-28-480 (Bacteroides vulgatus) (protein) NKIPTTMAFRTVTDVDNAVNGLYDLMSGSGYYGAAMFAYGDMKGDDMQSSEESGVCNTCYMFNHRPNSLNAGSLWGRPFYILREAWNILNAIAEGKIESGDEKKLNALKGETMAVIALCQFDLTRCFGYPYTKDKGASLGAPLIDHLVGTYENPPRSTVAQAYDFIIETLEEAVTLMSEEKNNGRMNKYAARALLARIYLYHDDNRKAFDLADQLIKDADTSGSYALYPHEKYVAAWSVEAKFGSESFFEIANSVDDTPGRDSWGYLLNWYGYQKGFVTQKYAEQMLADPGDVRGHLLEENKYAGKTVWWLYKLRGTDLKTAPLECNNVVLRLSEVYLIAAEAGCKLGGDAAVQGLGYLNEIVKRGNPDNEVTMADYTLDRVLDERSKELVGEGHRFFDLLRNGKTIVRKGGYHLPSVDEEVDWDFYKCVLPIPEDQFIFSPEMEQNPGYPKN", "values": [
      {"measurement": "glycan array binding signal (z-score)", "setting": "Gal(a1-3)Gal(b1-3)GlcNAc", "value": -0.593},
      {"measurement": "glycan array binding signal (z-score)", "setting": "[1]", "value": -0.507},
      {"measurement": "glycan array binding signal (z-score)", "setting": "[2]", "value": 0.762},
      {"measurement": "glycan array binding signal (z-score)", "setting": "[3]", "value": -0.949},
      {"measurement": "glycan array binding signal (z-score)", "setting": "[4]", "value": 0.051},
      {"measurement": "glycan array binding signal (z-score)", "setting": "[5]", "value": -0.117},
      {"measurement": "glycan array binding signal (z-score)", "setting": "Gal(a1-3)Gal(b1-4)Glc", "value": -0.354},
      {"measurement": "glycan array binding signal (z-score)", "setting": "Gal(a1-3)Gal(b1-4)GlcNAc", "value": -0.719},
      {"measurement": "glycan array binding signal (z-score)", "setting": "[6]", "value": -0.089},
      {"measurement": "glycan array binding signal (z-score)", "setting": "[7]", "value": 0.214},
      {"measurement": "glycan array binding signal (z-score)", "setting": "[8]", "value": -0.276},
      {"measurement": "glycan array binding signal (z-score)", "setting": "[9]", "value": -0.52},
      {"measurement": "glycan array binding signal (z-score)", "setting": "[10]", "value": -0.376},
      {"measurement": "glycan array binding signal (z-score)", "setting": "[11]", "value": 0.602},
      {"measurement": "glycan array binding signal (z-score)", "setting": "Gal(a1-3)GalNAc", "value": -0.059},
      {"measurement": "glycan array binding signal (z-score)", "setting": "[12]", "value": 3.09},
      {"measurement": "glycan array binding signal (z-score)", "setting": "[13]", "value": 0.366},
      {"measurement": "glycan array binding signal (z-score)", "setting": "Gal(a1-4)Gal(b1-4)Glc", "value": -0.955},
      {"measurement": "glycan array binding signal (z-score)", "setting": "Gal(a1-4)Gal(b1-4)GlcNAc", "value": 0.468},
      {"measurement": "glycan array binding signal (z-score)", "setting": "[14]", "value": 1.47},
      {"measurement": "glycan array binding signal (z-score)", "setting": "[15]", "value": -0.555},
      {"measurement": "glycan array binding signal (z-score)", "setting": "Gal(a1-4)GlcNAc", "value": -0.775},
      {"measurement": "glycan array binding signal (z-score)", "setting": "Gal(a1-6)Glc", "value": -0.367},
      {"measurement": "glycan array binding signal (z-score)", "setting": "Gal(b1-2)Gal", "value": 0.817},
      {"measurement": "glycan array binding signal (z-score)", "setting": "Gal(b1-3)Gal", "value": 1.03},
      {"measurement": "glycan array binding signal (z-score)", "setting": "Gal(b1-3)Gal(b1-4)GlcNAc", "value": -0.784},
      {"measurement": "glycan array binding signal (z-score)", "setting": "Gal(b1-3)GalNAc", "value": -0.53},
      {"measurement": "glycan array binding signal (z-score)", "setting": "[16]", "value": -0.261},
      {"measurement": "glycan array binding signal (z-score)", "setting": "[17]", "value": 0.449},
      {"measurement": "glycan array binding signal (z-score)", "setting": "Gal(b1-3)GalNAc(b1-3)Gal", "value": -0.645},
      {"measurement": "glycan array binding signal (z-score)", "setting": "[18]", "value": 0.509},
      {"measurement": "glycan array binding signal (z-score)", "setting": "[19]", "value": -0.326},
      {"measurement": "glycan array binding signal (z-score)", "setting": "[20]", "value": -0.368},
      {"measurement": "glycan array binding signal (z-score)", "setting": "Gal(b1-3)GlcNAc", "value": -0.413},
      {"measurement": "glycan array binding signal (z-score)", "setting": "[21]", "value": 0.581},
      {"measurement": "glycan array binding signal (z-score)", "setting": "[22]", "value": -0.17},
      {"measurement": "glycan array binding signal (z-score)", "setting": "Gal(b1-3)GlcNAc(b1-2)Man", "value": 0.832},
      {"measurement": "glycan array binding signal (z-score)", "setting": "[23]", "value": -0.001}
    ]}
  ]
}
